Data source: PubChem BioAssay AID1224830 (NIAID, 2016)
This is a random part of about 18,000 reagents. About 2,900 of them (16%) count as active. 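Calls are made per well; low scores hint the gene aids the LPS response, high scores that it dampens it.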 Repeated entries: four replicate wells of each siRNA pool.

- Test: 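Host factors that control LPS-induced TNF expression in human macrophages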 (primary screen)
- System: human THP-1 monocytic leukaemia cells, TNF dual-luciferase reporter clone, PMA-differentiated to macrophage-like cells
- Reagents: siRNA pool against human genes, 50 nM
- Timing: LPS for 4 h, given about 3 days after siRNA transfection
- Treatment: bacterial LPS (TLR4 ligand), 10 ng/ml
- Detection: 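Ratio of firefly to renilla light, scaled to the plate median and expressed as a robust z-score per replicate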
- Scale: TNF reporter robust z-score: higher = stronger TNF reporter response to LPS
- Rule for the call: 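a well is active when its z-score exceeds 2.8 or falls below -1.5; control wells carry no call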

For MTX3 (metaxin 3), what does the deposit list?
TNF reporter robust z-score: 0.04; Outcome: inactive

What did the screen give for MTX3 (metaxin 3)?
TNF reporter robust z-score: -0.11; Outcome: inactive

Which result is listed for MTX3 (metaxin 3)?
TNF reporter robust z-score: 0.14; Outcome: inactive

With MTX3 (metaxin 3), what does the deposit list?
TNF reporter robust z-score: -0.45; Outcome: inactive

What is on record for AGAP2 (ArfGAP with GTPase domain, ankyrin repeat and PH domain 2)?
TNF reporter robust z-score: 0.34; Outcome: inactive

With AGAP2 (ArfGAP with GTPase domain, ankyrin repeat and PH domain 2), what was measured?
TNF reporter robust z-score: 0.79; Outcome: inactive

With AGAP2 (ArfGAP with GTPase domain, ankyrin repeat and PH domain 2), what was measured?
TNF reporter robust z-score: -0.15; Outcome: inactive

For AGAP2 (ArfGAP with GTPase domain, ankyrin repeat and PH domain 2), what does the deposit list?
TNF reporter robust z-score: 0.8; Outcome: inactive

With SV2B (synaptic vesicle glycoprotein 2B), how do the results read?
TNF reporter robust z-score: 1.44; Outcome: inactive

How did the screen score SV2B (synaptic vesicle glycoprotein 2B)?
TNF reporter robust z-score: 0.66; Outcome: inactive

What did the screen give for SV2B (synaptic vesicle glycoprotein 2B)?
TNF reporter robust z-score: 1.56; Outcome: inactive

With SV2B (synaptic vesicle glycoprotein 2B), what does the deposit list?
TNF reporter robust z-score: 0.74; Outcome: inactive

For LMO7 (LIM domain 7), how do the results read?
TNF reporter robust z-score: 3.73; Outcome: active

How did the screen score LMO7 (LIM domain 7)?
TNF reporter robust z-score: 0.53; Outcome: inactive

What did the screen give for LMO7 (LIM domain 7)?
TNF reporter robust z-score: -0.72; Outcome: inactive

Which result is listed for LMO7 (LIM domain 7)?
TNF reporter robust z-score: 1.44; Outcome: inactive

How did the screen score CHST7 (carbohydrate sulfotransferase 7)?
TNF reporter robust z-score: -0.13; Outcome: inactive

How did the screen score CHST7 (carbohydrate sulfotransferase 7)?
TNF reporter robust z-score: 1.07; Outcome: inactive

For CHST7 (carbohydrate sulfotransferase 7), what does the deposit list?
TNF reporter robust z-score: 1.76; Outcome: inactive

Which result is listed for CHST7 (carbohydrate sulfotransferase 7)?
TNF reporter robust z-score: 1.65; Outcome: inactive

A stretch from the list above:
SV2B (synaptic vesicle glycoprotein 2B) | TNF reporter robust z-score = 1.44; Outcome = inactive
SV2B (synaptic vesicle glycoprotein 2B) | TNF reporter robust z-score = 0.66; Outcome = inactive
SV2B (synaptic vesicle glycoprotein 2B) | TNF reporter robust z-score = 1.56; Outcome = inactive
SV2B (synaptic vesicle glycoprotein 2B) | TNF reporter robust z-score = 0.74; Outcome = inactive
LMO7 (LIM domain 7) | TNF reporter robust z-score = 3.73; Outcome = active
LMO7 (LIM domain 7) | TNF reporter robust z-score = 0.53; Outcome = inactive

The results go on:
What is on record for ENO3 (enolase 3)?
TNF reporter robust z-score: 0.28; Outcome: inactive

For ENO3 (enolase 3), how do the results read?
TNF reporter robust z-score: 0.49; Outcome: inactive

For ENO3 (enolase 3), what does the deposit list?
TNF reporter robust z-score: -0.06; Outcome: inactive

What is on record for EIF3J (eukaryotic translation initiation factor 3 subunit J)?
TNF reporter robust z-score: -0.58; Outcome: inactive

What is on record for EIF3J (eukaryotic translation initiation factor 3 subunit J)?
TNF reporter robust z-score: -1.17; Outcome: inactive

Which result is listed for EIF3J (eukaryotic translation initiation factor 3 subunit J)?
TNF reporter robust z-score: -1.14; Outcome: inactive

For EIF3J (eukaryotic translation initiation factor 3 subunit J), how do the results read?
TNF reporter robust z-score: -1.57; Outcome: active

What did the screen give for ETFRF1 (electron transfer flavoprotein regulatory factor 1)?
TNF reporter robust z-score: 1.82; Outcome: inactive

How did the screen score ETFRF1 (electron transfer flavoprotein regulatory factor 1)?
TNF reporter robust z-score: 1.4; Outcome: inactive

With ETFRF1 (electron transfer flavoprotein regulatory factor 1), how do the results read?
TNF reporter robust z-score: 1.52; Outcome: inactive

What is on record for ETFRF1 (electron transfer flavoprotein regulatory factor 1)?
TNF reporter robust z-score: 0.67; Outcome: inactive

For MGST3 (microsomal glutathione S-transferase 3), what was measured?
TNF reporter robust z-score: -0.55; Outcome: inactive

What is on record for MGST3 (microsomal glutathione S-transferase 3)?
TNF reporter robust z-score: 1.43; Outcome: inactive

For MGST3 (microsomal glutathione S-transferase 3), how do the results read?
TNF reporter robust z-score: 1.21; Outcome: inactive

Which result is listed for MGST3 (microsomal glutathione S-transferase 3)?
TNF reporter robust z-score: 1.81; Outcome: inactive

What is on record for ARRDC1-AS1 (ARRDC1 antisense RNA 1)?
TNF reporter robust z-score: 0.01; Outcome: inactive

How did the screen score ARRDC1-AS1 (ARRDC1 antisense RNA 1)?
TNF reporter robust z-score: 1.19; Outcome: inactive

With ARRDC1-AS1 (ARRDC1 antisense RNA 1), what does the deposit list?
TNF reporter robust z-score: 0.97; Outcome: inactive

What is on record for ARRDC1-AS1 (ARRDC1 antisense RNA 1)?
TNF reporter robust z-score: 0.49; Outcome: inactive

Which result is listed for ASPM (assembly factor for spindle microtubules)?
TNF reporter robust z-score: -0.76; Outcome: inactive

For ASPM (assembly factor for spindle microtubules), how do the results read?
TNF reporter robust z-score: -0.1; Outcome: inactive

What did the screen give for ASPM (assembly factor for spindle microtubules)?
TNF reporter robust z-score: 0.35; Outcome: inactive

For ASPM (assembly factor for spindle microtubules), what was measured?
TNF reporter robust z-score: -0.63; Outcome: inactive

What is on record for SLC30A8?
TNF reporter robust z-score: 0.71; Outcome: inactive

How did the screen score SLC30A8?
TNF reporter robust z-score: 1.17; Outcome: inactive

How did the screen score SLC30A8?
TNF reporter robust z-score: 2.05; Outcome: inactive

For SLC30A8, how do the results read?
TNF reporter robust z-score: 2.57; Outcome: inactive
